According to US20200008426A1, “ACTIVE COMPOUND COMBINATIONS” (BAYER AKTIENGESELLSCHAFT, priority 2017, published 2020):
Values joined by “and” are separate entries in the source; they are usually repeats but may differ in a detail not shown here. Equal values may be shown once. The name of at least one read-out is uncertain.

Key:
Septoria tritici = experiment: In vivo preventive Septoria tritici test (wheat); conditions: 21 days after inoculation
Procedure: After the spray coating has been dried, the plants are sprayed with a spore suspension of Septoria tritici.
The test is evaluated 21 days after the inoculation.

Puccinia triticina = experiment: In vivo preventive Puccinia triticina test (wheat); conditions: 250 ppm a.i.; 8 days after inoculation
Procedure: After the spray coating has been dried, the plants are sprayed with a spore suspension of Puccinia triticina.
The test is evaluated 8 days after the inoculation.

| SMILES | Efficacy in % found (Septoria tritici; 20 ppm a.i.) [%] | Efficacy in % found (Septoria tritici; 40 ppm a.i.) [%] | Efficacy in % found (Septoria tritici; 80 ppm a.i.) | Efficacy in % found (Puccinia triticina) [%] |
| --- | --- | --- | --- | --- |
| CC(O)(Cn1cncn1)c1ccc(Oc2ccc(Cl)cc2)nc1C(F)(F)F (stereo not shown) [I.01, 2-[6-(4-chlorophenoxy)-2-(trifluoromethyl)pyridin-3-yl]-1-(1H-1,2,4-triazol-1-yl)propan-2-ol] | 29 | 43 | 100% and 71% |  |
| N#Cc1c(Cl)c(Cl)c(Cl)c(C#N)c1Cl [Example 5.004, chlorothalonil] |  |  |  | 33 |
